Measured values: patent US8637511B2, “Aminopyrimidines useful as kinase inhibitors” (Vertex Pharmaceuticals Incorporated, priority 2005, dated 2014)
Some entries share one result that the patent states for a list of compounds.

Molecular target: T1, Aurora-2 (Aurora A) (Homo sapiens, UniProt O14965)
T1 sequence (O14965 1-403): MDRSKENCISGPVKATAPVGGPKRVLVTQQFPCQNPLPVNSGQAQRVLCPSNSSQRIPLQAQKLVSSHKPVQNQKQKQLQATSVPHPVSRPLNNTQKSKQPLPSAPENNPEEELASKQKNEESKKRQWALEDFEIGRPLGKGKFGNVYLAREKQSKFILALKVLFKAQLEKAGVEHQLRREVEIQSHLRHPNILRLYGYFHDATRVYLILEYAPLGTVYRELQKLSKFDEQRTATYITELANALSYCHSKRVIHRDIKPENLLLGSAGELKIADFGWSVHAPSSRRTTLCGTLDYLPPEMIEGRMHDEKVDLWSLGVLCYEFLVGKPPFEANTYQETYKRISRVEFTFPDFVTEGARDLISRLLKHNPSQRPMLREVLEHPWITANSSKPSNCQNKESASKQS
Assay: Aurora-2 (Aurora A) inhibition assay, coupled enzyme
Type: biochemical
Settings: read-out: Aurora A kinase Ki value
Experimental: Assays were carried out in a mixture of 100 mM Hepes (pH7.5), 10 mM MgCl2, 1 mM DTT, 25 mM NaCl, 2.5 mM phosphoenolpyruvate, 300 μM NADH, 30 μg/ml pyruvate kinase and 10 μg/ml lactate dehydrogenase. […] Assays were carried out at 30° C. and in the presence of 40 nM Aurora-2.
The plate was preincubated for 10 minutes at 30° C. and the reaction initiated by addition of 10 μl of Aurora-2. Initial reaction rates were determined with a Molecular Devices SpectraMax Plus plate reader over a 10 minute time course. IC50 and Ki data were calculated from non-linear regression analysis using the Prism software package (GraphPad Prism version 3.0cx for Macintosh, GraphPad Software, San Diego Calif., USA).
`CCc1cccc(C(=O)Nc2ccc(Sc3nc(Nc4cc(C)[nH]n4)cc(N4CCC4)n3)cc2)c1Cl` [Compound 164] gave a Ki of at most 1 nM.

Same assay, conditions: read-out: Aurora A kinase activity, Ki
`Cc1cc(Nc2cc(N3CCC3)nc(Sc3ccc(NC(=O)c4ccc(Cl)cc4)cc3)n2)n[nH]1` [Compound 54] showed a Ki of under 25 nM. Work on `Cc1cc(Nc2cc(N3CCC3)nc(Sc3ccc(NC(=O)C4CCCCC4)cc3)n2)n[nH]1` [Compound 30] yielded a Ki of under 25 nM. Compound `CCN(C)C(=O)c1ccc(Sc2nc(Nc3cc(C)[nH]n3)cc(N3CC(O)(C4CC4)C3)n2)cc1` [Compound 125] has a Ki of under 25 nM. In the case of `Cc1cc(Nc2cc(N3CCC3)nc(Sc3ccc(C(=O)NCc4ccccc4Cl)cc3)n2)n[nH]1` [Compound 24], the Ki is reported as under 25 nM. With `CCC(=O)Nc1ccc(Sc2nc(Nc3cc(C)n[nH]3)cc(N3CC(OC)(C(C)(C)C)C3)n2)cc1` [Compound 90] the Ki was under 25 nM. In the case of `CCN(CC)C(=O)Nc1ccc(Sc2nc(Nc3cc(C)[nH]n3)cc(N3CCC3)n2)cc1` [Compound 72], the Ki is reported as under 25 nM. `CCC(=O)Nc1ccc(Sc2nc(Nc3cc(C)n[nH]3)cc(N3CC(N4CCC4)C3)n2)cc1` [Compound 70] showed a Ki of under 25 nM. With `CCC(=O)Nc1ccc(Sc2nc(C#CC(C)(C)N3CCC3)cc(Nc3cc(C)n[nH]3)n2)cc1` [Compound 77] the Ki was under 25 nM. For `Cc1cc(Nc2cc(N3CC4(CCCO4)C3)nc(Sc3ccc(NC(=O)C4CC4)cc3)n2)[nH]n1` [Compound 123], the Ki was under 25 nM. With `Cc1cc(Nc2cc(N3CCC3)nc(Sc3ccc(C(=O)NC4CCCC4)cc3)n2)[nH]n1` [Compound 23] the Ki was under 25 nM. Compound `CSc1ccccc1C(=O)Nc1ccc(Sc2nc(Nc3cc(C)[nH]n3)cc(N3CCC3)n2)cc1` [Compound 165] has a Ki of under 25 nM. Compound `CC(=O)Nc1ccc(Nc2nc(Nc3cc(C)n[nH]3)cc(N3CC(F)(C4CC4)C3)n2)cc1` [Compound 201] has a Ki of under 25 nM. In the case of `CCC(=O)Nc1ccc(Sc2nc(CCN3CCC3)cc(Nc3cc(C)n[nH]3)n2)cc1` [Compound 197], the Ki is reported as under 25 nM. `Cc1cc(Nc2cc(N3CC(O)(C4CC4)C3)nc(Sc3ccc4ccccc4c3)n2)n[nH]1` [Compound 131] gave a Ki of under 25 nM. Work on `Cc1ccc2cc(Sc3nc(Nc4cc(C)[nH]n4)cc(N4CC(N5CCCC5)C4)n3)ccc2n1` [Compound 182] yielded a Ki of under 25 nM. `Cc1cc(Nc2cc(N3CCC3)nc(Sc3ccc(-n4ccccc4=O)cc3)n2)[nH]n1` [Compound 47] showed a Ki of under 25 nM. Work on `CCCCOC1(C2CC2)CN(c2cc(Nc3cc(C)n[nH]3)nc(Sc3ccc(NC(=O)C4CC4)cc3)n2)C1` [Compound 111] yielded a Ki of under 25 nM. In the case of `Cc1cc(Nc2cc(N3CC(F)(C4CC4)C3)nc(Sc3ccc4c(c3)CN(CC(F)(F)F)C4=O)n2)[nH]n1` [Compound 179], the Ki is reported as under 25 nM. Compound `Cc1cnc(Nc2cc(N3CC(N(C)C)C3)nc(Sc3ccc(NC(=O)C4CC4)cc3)n2)s1` [Compound 1] has a Ki of under 25 nM. Compound `Cc1cnc(Nc2cc(N3CC(O)C3)nc(Sc3ccc(NC(=O)C4CC4)cc3)n2)s1` [Compound 3] has a Ki of under 25 nM. Compound `Cc1cc(Nc2cc(N3CC(O)(C4CC4)C3)nc(Sc3ccc(N4CCCC4=O)cc3)n2)n[nH]1` [Compound 133] has a Ki of under 25 nM. With `Cc1cc(Nc2cc(N3CC(N4CC[C@H](F)C4)C3)nc(Sc3ccc(NC(=O)CC(F)(F)F)cc3)n2)[nH]n1` [Compound 185] the Ki was under 25 nM. In the case of `Cc1ccc2cc(Sc3nc(Nc4cc(C)[nH]n4)cc(N4CC(C5CCC(F)C5)C4)n3)ccc2n1` (centres unmarked) [Compound 198], the Ki is reported as under 25 nM. Compound `Cc1cc(Nc2cc(N3CC(F)(C4CC4)C3)nc(Nc3ccc4nc(C(F)(F)F)[nH]c4c3)n2)[nH]n1` [Compound 210] has a Ki of under 25 nM. For `Cc1cc(Nc2cc(N3CCC3)nc(Sc3ccc(NC(=O)C(F)(F)F)cc3)n2)[nH]n1` [Compound 158], the Ki was under 25 nM. For `Cc1cc(Nc2cc(N3CCC3)nc(Sc3ccc(NC(=O)c4sc(C)nc4C)cc3)n2)n[nH]1` [Compound 41], the Ki was under 25 nM. `CCC(=O)Nc1ccc(Sc2nc(Nc3cc(C)n[nH]3)cc(N3CC(O)(C4CCCCC4)C3)n2)cc1` [Compound 101] showed a Ki of under 25 nM. With `Cc1cc(Nc2cc(N3CCC3)nc(Sc3ccc(NC(=O)c4ccccc4N(C)C)cc3)n2)[nH]n1` [Compound 124] the Ki was under 25 nM. `Cc1cc(Nc2cc(N3CCC3)nc(Sc3ccc(NC(=O)c4c(F)cccc4N4CCC4)cc3)n2)n[nH]1` [Compound 8] showed a Ki of under 25 nM. In the case of `COC1(C2CC2)CN(c2cc(Nc3cc(C)[nH]n3)nc(Sc3ccc(NC(=O)C4CC4)cc3)n2)C1` [Compound 118], the Ki is reported as under 25 nM. `CCc1cccc(C(=O)Nc2ccc(Sc3nc(Nc4cc(C)[nH]n4)cc(N4CCC4)n3)cc2)c1Cl` [Compound 164] gave a Ki of under 25 nM. With `Cc1cc(Nc2cc(N3CCC3)nc(Sc3ccc(NC(=O)c4ccccc4Cl)nc3)n2)[nH]n1` [Compound 207] the Ki was under 25 nM. `CCC(=O)Nc1ccc(Sc2nc(Nc3cc(C)n[nH]3)cc(N3CC(O)(C(C)(C)C)C3)n2)cc1` [Compound 81] gave a Ki of under 25 nM. In the case of `CC(=O)OC1(C2CC2)CN(c2cc(Nc3cc(C)n[nH]3)nc(Sc3ccc(NC(=O)C4CC4)cc3)n2)C1` [Compound 107], the Ki is reported as under 25 nM. For `Cc1cc(Nc2cc(N3CC(F)(C4CC4)C3)nc(Sc3ccc(N)cc3)n2)[nH]n1` [Compound 174], the Ki was under 25 nM. `Cc1cc(Nc2cc(N3CC(F)(C4CC4)C3)nc(Sc3ccc4nc(CC(F)(F)F)n(C)c4c3)n2)[nH]n1` [Compound 187] gave a Ki of under 25 nM. In the case of `Cc1cc(Nc2cc(NCC3(C)COC3)nc(Sc3ccc(NC(=O)c4ccccc4Cl)cc3)n2)[nH]n1` [Compound 208], the Ki is reported as under 25 nM. Work on `CCC1(F)CN(c2cc(Nc3cc(C)n[nH]3)nc(Sc3ccc(NC(=O)CC(F)(F)F)cc3)n2)C1` [Compound 196] yielded a Ki of under 25 nM. `COC1(C)CN(c2cc(Nc3cc(C)n[nH]3)nc(Sc3ccc(NC(=O)c4ccccc4Cl)cc3)n2)C1` [Compound 51] showed a Ki of under 25 nM. For `Cc1cnc(Nc2cc(N3CC(N)C3)nc(Sc3ccc(NC(=O)C4CC4)cc3)n2)s1` [Compound 2], the Ki was under 25 nM. For `Cc1cc(Nc2cc(N3CC(N4CCCC4)C3)nc(Sc3ccc(NC(=O)CC(F)(F)F)cc3)n2)[nH]n1` [Compound 204], the Ki was under 25 nM. `Cc1cc(Nc2cc(N3CCC3)nc(Sc3ccc(NC(=O)c4sccc4Cl)cc3)n2)n[nH]1` [Compound 43] showed a Ki of under 25 nM. With `Cc1cc(Nc2cc(N3CC(F)(C4CC4)C3)nc(Sc3ccc(NC(=O)C4(C)CC4)cc3)n2)[nH]n1` [Compound 203] the Ki was under 25 nM. `CCC(=O)Nc1ccc(Sc2nc(Nc3cc(C)n[nH]3)cc(N3CC(OC(C)(C)C)C3)n2)cc1` [Compound 67] gave a Ki of under 25 nM. `Cc1cc(Nc2cc(N3CCC3)nc(Sc3ccc(C(=O)NCc4ccccc4)cc3)n2)n[nH]1` [Compound 19] showed a Ki of under 25 nM. For `Cc1cc(Nc2cc(N3CC(F)(C4CC4)C3)nc(Sc3ccc(NC(=O)[C@H]4CCCN4C(C)C)cc3)n2)[nH]n1` [Compound 193], the Ki was under 25 nM. `Cc1cnc(Nc2cc(N3CCC3)nc(Sc3ccc(NC(=O)C4CC4)cc3)n2)s1` [Compound 4] gave a Ki of under 25 nM. For `CCC(=O)Nc1ccc(Sc2nc(Nc3cc(C)n[nH]3)cc(N3CC(O)(c4ccccc4)C3)n2)cc1` [Compound 86], the Ki was under 25 nM. With `CCOc1ccc(Sc2nc(Nc3cc(C)n[nH]3)cc(N3CC(C(=O)N4CCCC4)C3)n2)cc1` [Compound 141] the Ki was under 25 nM. Compound `Cc1cc(Nc2cc(N3CC(OC(=O)CN(C)C)(C4CC4)C3)nc(Sc3ccc(NC(=O)C4CC4)cc3)n2)n[nH]1` [Compound 119] has a Ki of under 25 nM. With `CC1=NN=C(Nc2cc(N3CCC3)nc(Sc3ccc(NC(=O)C4CCCN4C)cc3)n2)C1` (centres unmarked) [Compound 6] the Ki was under 25 nM. With `COC(=O)c1ccc(Sc2nc(Nc3cc(C4CC4)[nH]n3)cc(N3CC(O)(C4CC4)C3)n2)cc1` [Compound 106] the Ki was under 25 nM.

Tested on: not listed separately
Assay: Microsomal stability assay
Type: in vitro ADME
Settings: after 30 minutes
With `Cc1cc(Nc2cc(N3CCC3)nc(Sc3ccc(NC(=O)c4ccc(Cl)cc4)cc3)n2)n[nH]1` [Compound 54] the “stability to human liver microsomes, % remaining” value (“stability … % remaining” for short) was over 50%. With `Cc1cc(Nc2cc(N3CCC3)nc(Sc3ccc(NC(=O)C4CCCCC4)cc3)n2)n[nH]1` [Compound 30] the “stability … % remaining” value was over 50%. For `CCC(=O)Nc1ccc(Sc2nc(Nc3cc(C)n[nH]3)cc(N3CC(OC)(C(C)(C)C)C3)n2)cc1` [Compound 90], the “stability … % remaining” value was over 50%.
